Source: PubChem BioAssay AID2284334 (EPA ToxCast)
The inconclusive results got no clear call from the source; some entries with a clear call stand among them for comparison. Potencies of inconclusive entries are doubtful fits and often do not repeat. Calls of active or inactive are those of the source. Rule for the calls: active = hit-call score of the fitted dose curve at least 0.9, where 1 is the maximum; inconclusive = response in the unintended direction; inactive = score below 0.9.

By UniProt entry, the sequences of proteins in these tests, tags left out. Where a name states a change or a piece, a line headed by the entry shows the natural chain unless it says otherwise.
UniProt Q07869: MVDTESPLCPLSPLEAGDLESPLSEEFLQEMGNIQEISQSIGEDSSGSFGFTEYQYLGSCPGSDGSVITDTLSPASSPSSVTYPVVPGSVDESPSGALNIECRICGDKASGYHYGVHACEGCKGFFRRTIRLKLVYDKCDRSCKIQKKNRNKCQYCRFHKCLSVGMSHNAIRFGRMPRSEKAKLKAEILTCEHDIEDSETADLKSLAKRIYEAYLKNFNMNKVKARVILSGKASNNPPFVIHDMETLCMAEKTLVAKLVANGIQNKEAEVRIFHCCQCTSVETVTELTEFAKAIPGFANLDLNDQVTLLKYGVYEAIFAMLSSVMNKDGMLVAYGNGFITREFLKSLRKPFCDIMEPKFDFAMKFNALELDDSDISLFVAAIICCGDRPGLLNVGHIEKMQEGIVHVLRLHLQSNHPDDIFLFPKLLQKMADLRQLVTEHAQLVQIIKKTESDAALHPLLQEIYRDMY

The compounds below were run against human Peroxisome Proliferator-activated Receptor alpha (PPARa), PPARA (gene 5465) (UniProt Q07869) (assay: ATG_hPPARa_EcoTox2: Attagene TRANS-FACTORIAL EcoTox-2 HepG2 Assay for human Peroxisome Proliferator-activated Receptor alpha (PPARa)).
Experimental: ATG_EcoTox2 is a cell-based, multiplexed assay created by modifying the existing Attagene TRANS-FACTORIAL system to include a panel of nuclear receptors from some or all the following species: human (Homo sapiens), african clawed frog (Xenopus laevis), rainbow trout (Oncorhynchus mykiss), japanese medaka (Oryzias latipes), and zebrafish (Danio rerio). The ECOTOX2-FACTORIAL format uses HepG2, a human liver cell line, with measurements taken at 24 hours after chemical dosing in a 24-well plate. ATG_hPPARa_EcoTox2 is one of 29 assay components calculated in the ATG_EcoTox2 assay. It is designed to make measurements of mRNA induction, a form of inducible reporter, as detected with fluorescence intensity signals by Reverse transcription polymerase chain reaction (RT-PCR) and Capillary electrophoresis technology.The assay endpoint ATG_hPPARa_EcoTox2 was analyzed in the positive analysis fitting direction relative to DMSO as the negative control and baseline of activity. Using a type of inducible reporter, measures of mRNA for gain-of-signal activity can be used to understand the reporter gene at the transcription factor-level as they relate to the gene PPARa. Furthermore, this assay endpoint can be referred to as a primary readout, because this assay has produced multiple assay endpoints where this one serves a reporter gene function. […]
Human liver HepG2 cells are transiently transfected with multiple reporter transcription units (MRTUs) in 6-well plates using FuGene 6 reagent (Roche; 3 ml FuGene/1 mg DNA). […] A major difference between the CIS and TRANS system is that in CIS activities of endogenous TFs are measured, whereas the TRANS assay evaluates changes in activities of exogenous, chimeric NR-Gal4 proteins. […] The fragments were purified using Qiaquick PCR columns (Qiagen), analyzed on an ABI 3130xL genetic analyzer (Applied Biosystems) with peak positions identified by using a set of X-rhodamine (ROX)-labeled MapMarker1000 molecular weight standards (BioVentures). […]
For `C=C(c1ccc(C(=O)O)cc1)c1cc2c(cc1C)C(C)(C)CCC2(C)C`, the AC50 was inconclusive: 1100 nM.
With `CC(C)(Oc1ccc(C2CC2(Cl)Cl)cc1)C(=O)O` (stereo not drawn) the AC50 was active: 984 nM.
With `C[C@@H]1C[C@H]2[C@@H]3CCC4=CC(=O)C=C[C@]4(C)[C@@]3(F)[C@@H](O)C[C@]2(C)[C@@]1(O)C(=O)COP(=O)(O)O` the outcome was “inactive”.
